Data reported in article PMC7804450.
Results are given in words; binding and its absence hold for the method and conditions named. For some of these results: Binding seen in cells or lysates may run through a third protein. Some entries that bind do so weakly or less than the wild type.

Chains of the proteins cited; added tags and fusions are not shown.
UniProt P49815: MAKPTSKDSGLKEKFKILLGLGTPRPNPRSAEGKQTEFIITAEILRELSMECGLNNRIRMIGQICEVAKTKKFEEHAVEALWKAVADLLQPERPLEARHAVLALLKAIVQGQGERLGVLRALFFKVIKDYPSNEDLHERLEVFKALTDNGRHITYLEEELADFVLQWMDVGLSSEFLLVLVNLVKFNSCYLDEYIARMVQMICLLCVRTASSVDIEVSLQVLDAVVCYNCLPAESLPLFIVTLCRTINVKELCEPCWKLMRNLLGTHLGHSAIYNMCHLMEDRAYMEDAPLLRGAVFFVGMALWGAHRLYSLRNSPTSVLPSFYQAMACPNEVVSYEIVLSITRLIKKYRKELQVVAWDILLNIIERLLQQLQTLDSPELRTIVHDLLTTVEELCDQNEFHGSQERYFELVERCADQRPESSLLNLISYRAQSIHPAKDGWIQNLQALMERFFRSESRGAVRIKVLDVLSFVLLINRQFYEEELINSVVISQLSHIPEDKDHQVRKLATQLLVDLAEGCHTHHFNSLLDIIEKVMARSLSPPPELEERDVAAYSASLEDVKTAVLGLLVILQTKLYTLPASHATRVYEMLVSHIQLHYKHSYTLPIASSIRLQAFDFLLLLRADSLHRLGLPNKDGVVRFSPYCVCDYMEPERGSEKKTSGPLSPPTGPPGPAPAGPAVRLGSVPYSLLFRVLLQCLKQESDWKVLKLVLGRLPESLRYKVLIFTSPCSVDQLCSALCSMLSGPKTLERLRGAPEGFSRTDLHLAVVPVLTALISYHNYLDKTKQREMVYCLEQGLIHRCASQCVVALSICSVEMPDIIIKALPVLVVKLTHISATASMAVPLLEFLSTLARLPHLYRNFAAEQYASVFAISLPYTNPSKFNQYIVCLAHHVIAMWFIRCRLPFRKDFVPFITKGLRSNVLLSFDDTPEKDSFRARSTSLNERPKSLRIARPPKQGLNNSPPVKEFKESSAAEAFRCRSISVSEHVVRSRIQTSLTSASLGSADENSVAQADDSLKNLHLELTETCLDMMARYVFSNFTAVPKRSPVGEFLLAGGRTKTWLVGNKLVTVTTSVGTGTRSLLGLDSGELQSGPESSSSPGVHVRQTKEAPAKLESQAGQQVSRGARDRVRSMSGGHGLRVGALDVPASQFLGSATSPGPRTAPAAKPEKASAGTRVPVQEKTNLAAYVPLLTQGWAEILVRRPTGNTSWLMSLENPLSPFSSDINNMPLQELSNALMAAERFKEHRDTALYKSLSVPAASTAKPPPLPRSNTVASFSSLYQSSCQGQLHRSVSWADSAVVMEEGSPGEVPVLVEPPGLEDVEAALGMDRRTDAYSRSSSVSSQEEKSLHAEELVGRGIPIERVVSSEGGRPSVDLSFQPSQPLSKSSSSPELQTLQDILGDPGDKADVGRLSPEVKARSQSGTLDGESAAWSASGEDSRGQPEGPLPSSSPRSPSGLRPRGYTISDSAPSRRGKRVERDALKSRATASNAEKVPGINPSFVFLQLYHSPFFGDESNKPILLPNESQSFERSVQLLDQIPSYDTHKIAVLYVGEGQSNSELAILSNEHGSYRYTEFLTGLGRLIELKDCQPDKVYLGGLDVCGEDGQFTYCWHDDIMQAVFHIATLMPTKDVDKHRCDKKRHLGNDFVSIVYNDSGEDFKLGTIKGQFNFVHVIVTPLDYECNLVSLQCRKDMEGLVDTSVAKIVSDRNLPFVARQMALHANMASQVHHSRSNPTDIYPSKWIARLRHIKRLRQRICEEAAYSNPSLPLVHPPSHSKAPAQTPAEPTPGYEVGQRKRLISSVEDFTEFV

Tests used:
[1] = target: T1, full-length TSC1 (immunoprecipitation assays) (human) (UniProt Q92574); assay: co-IP; immunoprecipitation assays of Supplementary Fig. 6f, g, i; host, tags and bait not told in the text shown
T1 sequence: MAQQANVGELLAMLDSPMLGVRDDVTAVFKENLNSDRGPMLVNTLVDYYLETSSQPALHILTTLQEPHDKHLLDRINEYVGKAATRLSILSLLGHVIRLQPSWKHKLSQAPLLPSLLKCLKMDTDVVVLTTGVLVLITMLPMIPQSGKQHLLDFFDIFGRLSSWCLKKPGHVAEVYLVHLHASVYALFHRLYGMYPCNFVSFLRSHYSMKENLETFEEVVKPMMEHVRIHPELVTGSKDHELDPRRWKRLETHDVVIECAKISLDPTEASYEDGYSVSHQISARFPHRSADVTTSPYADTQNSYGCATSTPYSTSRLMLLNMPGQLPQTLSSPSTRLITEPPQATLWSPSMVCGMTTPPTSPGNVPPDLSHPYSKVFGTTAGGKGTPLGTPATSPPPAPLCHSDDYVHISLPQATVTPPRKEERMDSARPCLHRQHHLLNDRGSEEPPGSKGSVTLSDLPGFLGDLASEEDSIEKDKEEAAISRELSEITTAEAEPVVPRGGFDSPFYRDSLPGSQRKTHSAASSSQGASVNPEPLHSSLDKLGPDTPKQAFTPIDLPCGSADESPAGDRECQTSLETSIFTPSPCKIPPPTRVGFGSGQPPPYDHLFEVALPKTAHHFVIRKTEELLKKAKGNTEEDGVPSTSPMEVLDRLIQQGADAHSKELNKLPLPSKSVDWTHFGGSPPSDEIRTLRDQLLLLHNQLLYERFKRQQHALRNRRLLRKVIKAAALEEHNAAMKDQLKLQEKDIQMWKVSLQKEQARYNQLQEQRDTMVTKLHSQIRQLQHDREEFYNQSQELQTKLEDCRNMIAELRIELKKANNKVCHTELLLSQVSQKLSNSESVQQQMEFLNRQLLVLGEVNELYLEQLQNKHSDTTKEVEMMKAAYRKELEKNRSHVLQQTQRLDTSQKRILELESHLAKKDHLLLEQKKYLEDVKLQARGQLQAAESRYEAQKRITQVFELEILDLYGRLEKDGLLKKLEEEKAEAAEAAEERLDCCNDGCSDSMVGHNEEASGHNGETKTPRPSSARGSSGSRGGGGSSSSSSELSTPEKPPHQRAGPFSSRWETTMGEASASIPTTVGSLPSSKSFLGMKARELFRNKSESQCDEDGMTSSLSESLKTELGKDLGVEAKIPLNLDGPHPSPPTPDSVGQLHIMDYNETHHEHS

[2] = target: TSC2 (immunoprecipitation assays) (human) (UniProt P49815); assay: as above
[3] = target: TSC2 (immunoprecipitation assays) (human), P49815; assay: as above; conditions: remark: other sources report otherwise
[4] = target: tuberous sclerosis complex 2 (TSC2), human, subunit of the purified TSC complex (human), P49815; assay: cryo-EM structure; human TSC complex (TSC1, TSC2, TBC1D7) co-expressed in Expi293F, purified, cross-linked by Grafix (glutaraldehyde); single particle reconstruction, 4.4 Å overall, core 3.6 Å, wings 3.9 and 4.1 Å; both purified; conditions: remark: other sources report otherwise

B1: TBC1D7 (immunoprecipitation assay) (protein, UniProt Q9P0N9 1-293)
chain: MTEDSQRNFRSVYYEKVGFRGVEEKKSLEILLKDDRLDTEKLCTFSQRFPLPSMYRALVWKVLLGILPPHHESHAKVMMYRKEQYLDVLHALKVVRFVSDATPQAEVYLRMYQLESGKLPRSPSFPLEPDDEVFLAIAKAMEEMVEDSVDCYWITRRFVNQLNTKYRDSLPQLPKAFEQYLNLEDGRLLTHLRMCSAAPKLPYDLWFKRCFAGCLPESSLQRVWDKVVSGSCKILVFVAVEILLTFKIKVMALNSAEKITKFLENIPQDSSDAIVSKAIDLWHKHCGTPVHSS
In the case of B1, the binding [1] is reported as “binds”.

B2: full-length TSC1 (immunoprecipitation assays) (protein, UniProt Q92574 1-1164)
chain: T1 sequence
For B2, the binding [2] was “binds”.

B3: TBC1D7 (immunoprecipitation assay), Q9P0N9 1-293 (protein)
chain: B1 chain
B3 was tested, and the binding [3] was “no binding”.

B4: Tre2-Bub2-Cdc16-1 domain family member 7 (TBC1D7), human, subunit of the purified TSC complex, Q9P0N9 1-293 (protein)
chain: B1 chain
For B4, the binding [4] was “no binding”.
